According to PMC8298264, “Function of cofactor Akirin2 in the regulation of gene expression in model human neutrophil-like HL60 cells” (Bioscience Reports, 2021):
No constants are given. Whether binding was seen depends on the method and setting. Binding seen in cells or lysates may run through a third protein. Some binding calls cover weakened binding; strength is not graded here.

Chains of the proteins cited; added tags and fusions are not shown.
UniProt Q53H80: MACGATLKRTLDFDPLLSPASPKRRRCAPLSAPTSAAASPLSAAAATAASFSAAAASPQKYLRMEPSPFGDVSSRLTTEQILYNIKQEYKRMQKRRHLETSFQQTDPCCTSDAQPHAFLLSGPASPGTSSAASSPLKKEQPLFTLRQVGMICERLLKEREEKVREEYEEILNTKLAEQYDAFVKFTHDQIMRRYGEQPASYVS

B1: phosphatidylinositol transfer protein-α isoform (protein, UniProt Q00169 1-270)
chain: MVLLKEYRVILPVSVDEYQVGQLYSVAEASKNETGGGEGVEVLVNEPYEKDGEKGQYTHKIYHLQSKVPTFVRMLAPEGALNIHEKAWNAYPYCRTVITNEYMKEDFLIKIETWHKPDLGTQENVHKLEPEAWKHVEAVYIDIADRSQVLSKDYKAEEDPAKFKSIKTGRGPLGPNWKQELVNQKDCPYMCAYKLVTVKFKWWGLQNKVENFIHKQERRLFTNFHRQLFCWLDKWVDLTMDDIRRMEEETKRQLDEMRQKDPVKGMTADD
B2: protein Wnt-2 (protein, UniProt P09544 26-360)
chain: SWWYMRATGGSSRVMCDNVPGLVSSQRQLCHRHPDVMRAISQGVAEWTAECQHQFRQHRWNCNTLDRDHSLFGRVLLRSSRESAFVYAISSAGVVFAITRACSQGEVKSCSCDPKKMGSAKDSKGIFDWGGCSDNIDYGIKFARAFVDAKERKGKDARALMNLHNNRAGRKAVKRFLKQECKCHGVSGSCTLRTCWLAMADFRKTGDYLWRKYNGAIQVVMNQDGTGFTVANERFKKPTKNDLVYFENSPDYCIRDREAGSLGTAGRVCNLTSRGMDSCEVMCCGRGYDTSHVTRMTKCGCKFHWCCAVRCQDCLEALDVHTCKAPKNADWTTAT
B3: mediator of RNA polymerase II transcription subunit 16 (protein, UniProt Q9Y2X0 1-877)
chain: MCDLRRPAAGGMMDLAYVCEWEKWSKSTHCPSVPLACAWSCRNLIAFTMDLRSDDQDLTRMIHILDTEHPWDLHSIPSEHHEAITCLEWDQSGSRLLSADADGQIKCWSMADHLANSWESSVGSLVEGDPIVALSWLHNGVKLALHVEKSGASSFGEKFSRVKFSPSLTLFGGKPMEGWIAVTVSGLVTVSLLKPSGQVLTSTESLCRLRGRVALADIAFTGGGNIVVATADGSSASPVQFYKVCVSVVSEKCRIDTEILPSLFMRCTTDLNRKDKFPAITHLKFLARDMSEQVLLCASSQTSSIVECWSLRKEGLPVNNIFQQISPVVGDKQPTILKWRILSATNDLDRVSAVALPKLPISLTNTDLKVASDTQFYPGLGLALAFHDGSVHIVHRLSLQTMAVFYSSAAPRPVDEPAMKRPRTAGPAVHLKAMQLSWTSLALVGIDSHGKLSVLRLSPSMGHPLEVGLALRHLLFLLEYCMVTGYDWWDILLHVQPSMVQSLVEKLHEEYTRQTAALQQVLSTRILAMKASLCKLSPCTVTRVCDYHTKLFLIAISSTLKSLLRPHFLNTPDKSPGDRLTEICTKITDVDIDKVMINLKTEEFVLDMNTLQALQQLLQWVGDFVLYLLASLPNQGSLLRPGHSFLRDGTSLGMLRELMVVIRIWGLLKPSCLPVYTATSDTQDSMSLLFRLLTKLWICCRDEGPASEPDEALVDECCLLPSQLLIPSLDWLPASDGLVSRLQPKQPLRLQFGRAPTLPGSAATLQLDGLARAPGQPKIDHLRRLHLGACPTEECKACTRCGCVTMLKSPNRTTAVKQWEQRWIKNCLAVEGRGPDACVTSRASEEAPAFVQLGPQSTHHSPRTPRSLDHLHPEDRP

target: Human recombinant Akirin2 produced in human kidney HEK293T cells, COOH-(Myc-DDK)-tagged (human) (UniProt Q53H80); experiment: pull-down; Myc-DDK-tagged recAkirin2 on c-Myc magnetic beads, incubated with 200 or 400 µg of HL60 protein lysate for 2 h at RT; eluates tested by dot blot with antibodies specific for each protein; dot areas compared with SNRNP70; only the target purified

Binder	binding
B1	binds
B2	binds
B3	binds
